We go through seven compounds from the supplement of paper PMC8007513.

The other results are listed elsewhere or left out. Repeats are few or missing, and single values can be far off.

The experiment has as its system Saccharomyces cerevisiae BY4743. Description: growth (OD600) relative to untreated control; higher = less growth inhibition. The settings on record: compound concentration: 133 uM; 20 h. As to the method:
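NMCCC compounds (133 uM, no IPBC) tested alone against Saccharomyces cerevisiae BY4743 in YPD, 96-well plates, starting OD600 ~0.1. Growth was read as OD600 at 20 h and expressed as % of the untreated control. Single pass.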
`CCOC(=O)c1ncn(-c2ccc(OC)cc2)c1N` came in with a growth of 98.4%.

`Cc1ccc2oc(SCC(=O)NC(C)(C)C)nc2n1`: the growth came to 107%.

The compound `CCOC(=O)c1cc(C(=O)N2CCOCC2)nn1C` registered a growth of 96.2%.

`Cc1ccc(NC(=O)CCc2ccc(C)o2)c(Br)c1` showed a growth of 89.8%.

With `CCOC(=O)N1CCN(CC1)C(=O)C2C\C(=N/O2)C3=CC=CC(=C3OC)OC` (configuration not stated), the growth came to 107%.

Consider `CCOc1ccc(N2C(=O)N(CC(=O)NCCC(C)C)c3ccccc3S2(=O)=O)cc1`, for which the growth came to 92.9%.

`CCOC(=O)C1CCN(C(=O)CCS(=O)(=O)c2ccc3c(c2)CC(C)N3C(=O)CC)CC1` (configuration not stated) returned a growth of 92.5%.
